# The list does not hold the whole screen: it gathers tests that were run many times, whatever their T/C, doses with no T/C, and many T/C values between a quarter and a half above the control. Other doses and runs of a compound stand elsewhere. T/C gives the treated animals as a percentage of the vehicle group. Some entries give survivors of the animals treated and no T/C: the source holds a T/C of zero for them, seemingly a mark for toxic or unscored doses. Some survivor counts are full or nearly so, which does not show that the dose was tolerated: survival well below the control is almost never listed, so the zero probably covers shortened survival too. Survivors were counted at the toxicity check, usually on the fifth day, unless a day is given; later deaths do not show. Schedules are NCI's codes, taken here to give the interval after Q, in days (D) or hours (H), and the number of doses after X. Some entries hold several experiments; their values stand side by side, smallest first. Signs of the kind (2×) count equal records among those shown. Where survival is the endpoint, this PubChem deposit counts one and a half times the control or more as active, and values a quarter to a half above the control carry no call in these data; other NCI protocols may use other cut-offs. Some T/C values are followed by the survivors on the day toxicity was checked, most often the fifth; where none is given, no animal had died by that day. Some schedule codes hold Z or #, which are not explained here.
# Test system: L1210 leukemia ip in BDF1 mice, survival T/C
# Assay: NCI In Vivo Anticancer Drug Screen. Data for tumor model L1210 Leukemia (intraperitoneal) in B6D2F1 (BDF1) mice
# Conditions: higher T/C = longer survival
# [1] = T/C endpoint: mean survival time, dose: 100.0 mg/kg/injection, schedule: Q01DX009 (ip), vehicle: Klucel (hydroxypropylcellulose) (HPC)
# [2] = T/C endpoint: mean survival time, dose: 200.0 mg/kg/injection, schedule: Q01DX009 (ip), vehicle: Klucel (hydroxypropylcellulose) (HPC)
# [3] = T/C endpoint: mean survival time, dose: 200.0 mg/kg/injection, schedule: Q04DX002 (ip), vehicle: Klucel (hydroxypropylcellulose) (HPC)
# [4] = T/C endpoint: mean survival time, dose: 200.0 mg/kg/injection, schedule: Q04DX003 (ip), vehicle: Klucel (hydroxypropylcellulose) (HPC)
# [5] = T/C endpoint: mean survival time, dose: 400.0 mg/kg/injection, schedule: Q01DX009 (ip), vehicle: Klucel (hydroxypropylcellulose) (HPC)
# [6] = T/C endpoint: mean survival time, dose: 400.0 mg/kg/injection, schedule: Q04DX002 (ip), vehicle: Klucel (hydroxypropylcellulose) (HPC)
# [7] = T/C endpoint: mean survival time, dose: 400.0 mg/kg/injection, schedule: Q04DX003 (ip), vehicle: Klucel (hydroxypropylcellulose) (HPC)
# [8] = T/C endpoint: mean survival time, dose: 25.0 mg/kg/injection, schedule: Q04DX003 (ip), vehicle: saline
# [9] = T/C endpoint: mean survival time, dose: 50.0 mg/kg/injection, schedule: Q04DX003 (ip), vehicle: saline
# [10] = T/C endpoint: mean survival time, dose: 100.0 mg/kg/injection, schedule: Q04DX003 (ip), vehicle: saline with Tween-80
# [11] = T/C endpoint: mean survival time, dose: 400.0 mg/kg/injection, schedule: Q04DX003 (ip), vehicle: water
# [12] = T/C endpoint: mean survival time, dose: 400.0 mg/kg/injection, schedule: Q01DX001 (ip), vehicle: carboxymethylcellulose (CMC)
# [13] = T/C endpoint: mean survival time, dose: 400.0 mg/kg/injection, schedule: Q01DX001 (ip), vehicle: saline
# [14] = T/C endpoint: mean survival time, dose: 400.0 mg/kg/injection, schedule: Q04DX003 (ip), vehicle: saline
# [15] = T/C endpoint: mean survival time, dose: 200.0 mg/kg/injection, schedule: Q04DX003 (ip), vehicle: saline with Tween-80
structure (smiles),measurement,setting,value
NC(N)=NC(N)=Nc1cccc(Cl)c1,T/C,[1],"97, 104, 108, 118 % of control"
same,T/C,"T/C endpoint: mean survival time, dose: 100.0 mg/kg/injection, schedule: Q04DX002 (ip), vehicle: Klucel (hydroxypropylcellulose) (HPC), evaluated on day 20",97 % of control
same,T/C,"T/C endpoint: mean survival time, dose: 100.0 mg/kg/injection, schedule: Q04DX002 (ip), vehicle: Klucel (hydroxypropylcellulose) (HPC), evaluated on day 30","97, 110, 139 % of control [2 of 3 alive]"
same,survivor count,[2],0 of 3 and 2 of 6
same,T/C,[3],"89, 91, 106 % of control [4 of 6 alive]"
same,survivor count,[3],0 of 3
same,survivor count,[4],3 of 6
same,survivor count,"T/C endpoint: mean survival time, dose: 400.0 mg/kg/injection, schedule: Q01DX001 (ip), vehicle: Klucel (hydroxypropylcellulose) (HPC)",1 of 6
same,survivor count,[5],0 of 3 and 0 of 6
same,survivor count,[6],"0 of 3 (2×), 0 of 6, 1 of 6"
same,survivor count,[7],0 of 6
O=c1o[nH]c(-c2ccccc2)c1-c1ccccc1,survivor count,[8],6 of 6
same,survivor count,[9],6 of 6
same,survivor count,[10],6 of 6
same,survivor count,"T/C endpoint: mean survival time, dose: 400.0 mg/kg/injection, schedule: Q04DX003 (ip), vehicle: saline with Tween-80",3 of 6
N#Cc1cn(C2OC(CO)C(O)C2O)c2ncn3ccnc3c12 (configuration not stated),T/C,[11],127 % of control (2×)
O=C(O)/C(=C\C#Cc1ccccc1)c1ccccc1,survivor count,[7],3 of 6
C=CCNC(=O)c1ccccc1,survivor count,"T/C endpoint: mean survival time, dose: 200.0 mg/kg/injection, schedule: Q04DX002 (ip), vehicle: saline with Tween-80",3 of 3
same,survivor count,"T/C endpoint: mean survival time, dose: 400.0 mg/kg/injection, schedule: Q04DX002 (ip), vehicle: saline with Tween-80",0 of 3
O=c1[nH]ncc(Cl)c1Cl,survivor count,"T/C endpoint: mean survival time, dose: 50.0 mg/kg/injection, schedule: Q01DX009 (ip), vehicle: saline with Tween-80",3 of 3
COC1=C(NC(C)c2ccccc2)C(=O)C(OC)=C(NC(C)c2ccccc2)C1=O (configuration not stated),survivor count,"T/C endpoint: mean survival time, dose: 100.0 mg/kg/injection, schedule: Q01DX001 (ip), vehicle: carboxymethylcellulose (CMC)",4 of 4
same,survivor count,[12],4 of 4
O=C(Nc1ccccc1F)Sc1c(Cl)c(Cl)nc(Cl)c1Cl,T/C,[1],"91, 95 [2 of 3 alive], 100, 108 % of control"
same,survivor count,[2],0 of 3 and 2 of 6
same,survivor count,[5],0 of 3 and 1 of 6
O=C(/C(=C/c1cccc(Cl)c1)c1ccccc1)c1ccc(O)cc1,survivor count,[12],2 of 4
CCCCCC(CN(C)C)C(=O)/C=C\c1ccc(Cl)cc1Cl (configuration not stated),survivor count,"T/C endpoint: mean survival time, dose: 100.0 mg/kg/injection, schedule: Q04DX003 (ip), vehicle: alcohol",2 of 6
same,survivor count,"T/C endpoint: mean survival time, dose: 200.0 mg/kg/injection, schedule: Q04DX003 (ip), vehicle: alcohol",0 of 6
same,survivor count,"T/C endpoint: mean survival time, dose: 400.0 mg/kg/injection, schedule: Q04DX003 (ip), vehicle: alcohol",0 of 6
CCOP(=O)(OCC)OCCSCC,survivor count,"T/C endpoint: mean survival time, dose: 300.0 mg/kg/injection, schedule: Q01DX001 (ip), vehicle: saline",2 of 6
NC(=Nc1ccccc1)c1ccc(Cl)cc1,survivor count,[3],3 of 3
same,survivor count,[6],2 of 3
O=C[C@@H](CO)O[C@H](C=O)n1cnc2c(=O)[nH]cnc21,T/C,"T/C endpoint: mean survival time, dose: 35.0 mg/kg/injection, schedule: Q01DX009 (ip), vehicle: saline",126 % of control
same,T/C,"T/C endpoint: mean survival time, dose: 70.0 mg/kg/injection, schedule: Q01DX009 (ip), vehicle: saline",143 % of control
same,T/C,"T/C endpoint: mean survival time, dose: 70.0 mg/kg/injection, schedule: Q01DX Z (ip), vehicle: water",145 % of control
same,T/C,"T/C endpoint: mean survival time, dose: 80.0 mg/kg/injection, schedule: Q01DX009 (ip), vehicle: saline",141 % of control
same,T/C,"T/C endpoint: mean survival time, dose: 270.0 mg/kg/injection, schedule: Q01DX009 (ip), vehicle: saline",137 % of control
same,survivor count,"T/C endpoint: mean survival time, dose: 280.0 mg/kg/injection, schedule: Q01DX009 (ip), vehicle: saline",3 of 6
same,T/C,"T/C endpoint: median survival time, dose: 39.0 mg/kg/injection, schedule: Q01DX009 (ip), vehicle: water",144 % of control
same,T/C,"T/C endpoint: median survival time, dose: 65.0 mg/kg/injection, schedule: Q01DX009 (ip), vehicle: water",144 % of control
same,survivor count,"T/C endpoint: median survival time, dose: 300.0 mg/kg/injection, schedule: Q01DX009 (ip), vehicle: water",3 of 8
CCCCNS(=O)(=O)c1ccc(Cl)c([N+](=O)[O-])c1,survivor count,"T/C endpoint: mean survival time, dose: 400.0 mg/kg/injection, schedule: Q04DX003 (ip), vehicle: gum acacia",5 of 6
C/C(=C\C(=O)O)CBr,survivor count,"T/C endpoint: mean survival time, dose: 200.0 mg/kg/injection, schedule: Q01DX009 (ip), vehicle: saline with Tween-80",1 of 3
c1coc(CCc2nc3ccccc3[nH]2)c1,survivor count,[7],2 of 6
CCOC(=N)c1nnn(Cc2ccccc2)c1N,survivor count,[13],1 of 4
CNC(=O)N1CC(C)OC(C)C1 (configuration not stated),survivor count,"T/C endpoint: mean survival time, dose: 100.0 mg/kg/injection, schedule: Q01DX009 (ip), vehicle: saline",6 of 6
CC(C)CC(CC(C)C)NCC(C)OC(=O)c1ccc(N(C)C)cc1 (configuration not stated),survivor count,"T/C endpoint: mean survival time, dose: 300.0 mg/kg/injection, schedule: Q01DX001 (ip), vehicle: other",0 of 5
Cc1ccc(C2=NN(c3ccccc3)C(c3ccccc3)C2NC2CCCCC2)cc1 (configuration not stated),survivor count,"T/C endpoint: mean survival time, dose: 200.0 mg/kg/injection, schedule: Q01DX009 (ip), vehicle: acetone",6 of 6
CCNC(=S)Nc1cccc(C)c1,T/C,"T/C endpoint: mean survival time, dose: 100.0 mg/kg/injection, schedule: Q04DX002 (ip), vehicle: gum acacia",129 % of control
same,T/C,"T/C endpoint: mean survival time, dose: 200.0 mg/kg/injection, schedule: Q04DX002 (ip), vehicle: gum acacia",126 % of control [2 of 3 alive]
same,survivor count,"T/C endpoint: mean survival time, dose: 400.0 mg/kg/injection, schedule: Q04DX002 (ip), vehicle: gum acacia",0 of 3
Cc1cc(Cl)nc(Cl)c1C#N,survivor count,[5],1 of 6
same,survivor count,[7],0 of 6
CNC(C#N)c1ccco1 (configuration not stated),survivor count,"T/C endpoint: mean survival time, dose: 12.5 mg/kg/injection, schedule: Q04DX003 (ip), vehicle: saline",0 of 6
same,survivor count,[8],1 of 6 and 2 of 6
same,survivor count,[9],0 of 6
same,survivor count,"T/C endpoint: mean survival time, dose: 100.0 mg/kg/injection, schedule: Q04DX003 (ip), vehicle: saline",0 of 6
same,survivor count,"T/C endpoint: mean survival time, dose: 200.0 mg/kg/injection, schedule: Q04DX003 (ip), vehicle: saline",0 of 6
same,survivor count,[14],0 of 6
NNc1nncc(=O)[nH]1,survivor count,"T/C endpoint: mean survival time, dose: 400.0 mg/kg/injection, schedule: Q01DX001 (ip), vehicle: saline with Tween-80",2 of 6
Cc1cc(=O)n(C)c2ccccc12,survivor count,[12],2 of 4
same,survivor count,[5],0 of 6
CC1CCC2C(CCC3CCCCC32)C1 (configuration not stated),survivor count,[13],2 of 4
COc1ccc(-c2nc(SCc3ccc(Cl)cc3)[nH]c(=O)c2CCO)cc1,survivor count,[14],6 of 6
Cc1c[n+]([O-])ccc1N=Nc1ccc(N(C)C)cc1,survivor count,[4],6 of 6
same,survivor count,[7],4 of 6
c1ccc(COc2ccc(Cc3nccc4ccccc34)cc2OCc2ccccc2)cc1,survivor count,[15],6 of 6
C=C(C)C1CCC2(CO)CCC3(C)C(CCC4C5(C)CCC(OC6CCCCO6)C(C)(C)C5CCC43C)C12 (configuration not stated),survivor count,"T/C endpoint: mean survival time, dose: 100.0 mg/kg/injection, schedule: Q04DX002 (ip), vehicle: saline with Tween-80",3 of 3
[O-]c1c[n+](-c2ccc(Cl)cc2Cl)no1,survivor count,[2],4 of 6
same,survivor count,[5],0 of 6
C/C(CC(C)(C)c1ccccc1)=N/NC(N)=O,survivor count,[5],3 of 6
CCc1cccc(CC)c1NC(=O)Nc1cc(Cl)ccc1C,survivor count,[10],6 of 6
same,survivor count,[15],6 of 6
Cc1ccc(S(=O)(=O)N(C)c2cc(Cl)c(C#N)c(Cl)c2)cc1,survivor count,"T/C endpoint: mean survival time, dose: 100.0 mg/kg/injection, schedule: Q04DX003 (ip), vehicle: Klucel (hydroxypropylcellulose) (HPC)",6 of 6
C1CCN[N-]C1.C1CCN[N-]C1.[Cl][Pt+2]([Cl])([Cl])[Cl],survivor count,"T/C endpoint: mean survival time, dose: 100.0 mg/kg/injection, schedule: Q04DX003 (ip), vehicle: water",3 of 6
same,survivor count,"T/C endpoint: mean survival time, dose: 200.0 mg/kg/injection, schedule: Q04DX003 (ip), vehicle: water",3 of 6
same,survivor count,[11],0 of 6
